Patent publication US7368107B2 (Dainippon Sumitomo Pharma Co., Ltd., priority 1998, dated 2008)
For some assays here: HELM strings list residues between dots; [ac] is acetyl, [am] amide, other brackets name non-standard units. Where no end group is shown, it is not given here.

Key:
[1] = peptide made by a vendor (peptide synthesis; Fmoc-Phe-Alko Resin); details: whole synthesis, scale 100 mg resin
[2] = general procedure: Fmoc solid-phase peptide synthesis; Fmoc-Phe-Alco Resin; details: whole synthesis, scale 100 mg resin
[3] = general procedure: Fmoc solid-phase peptide synthesis; Fmoc-Phe Alko Resin; details: whole synthesis, scale 100 mg resin
[4] = general procedure: Fmoc solid-phase peptide synthesis; Fmoc-Phe-Alko Resin (0.67 mmol/g); details: whole synthesis, scale 50 mg resin

Q: For DFMIQGGDF, which isolated mass [1] is on record?
A: 3.6 mg

Q: Which isolated mass [2] does the source give for DYMIQGGDF here?
A: 12.8 mg

Q: With KFHRVIKDF as the substance, how does the isolated mass [1] read?
A: 11.7 mg

Q: With KYHRVIKDF as the substance, how does the isolated mass [3] read?
A: 44.9 mg

Q: With PEPTIDE1{G.F.M.C.Q.G.G.D.F}$$$$V2.0 as the substance, how does the isolated mass [4] read?
A: 9.7 mg
